We go through 3 molecules from publication PMC8446001.

These are yes or no findings as the source states them, for the method shown. Binding seen in cells or lysates may run through a third protein. Some results given as binding are weak or reduced against the parent protein; the word gives no strength. Sequences can lack the tags named with a protein.

The test deals with T1, GlialCAM-Flag (glial cell adhesion molecule, wild type) (UniProt Q14CZ8).
T1 sequence: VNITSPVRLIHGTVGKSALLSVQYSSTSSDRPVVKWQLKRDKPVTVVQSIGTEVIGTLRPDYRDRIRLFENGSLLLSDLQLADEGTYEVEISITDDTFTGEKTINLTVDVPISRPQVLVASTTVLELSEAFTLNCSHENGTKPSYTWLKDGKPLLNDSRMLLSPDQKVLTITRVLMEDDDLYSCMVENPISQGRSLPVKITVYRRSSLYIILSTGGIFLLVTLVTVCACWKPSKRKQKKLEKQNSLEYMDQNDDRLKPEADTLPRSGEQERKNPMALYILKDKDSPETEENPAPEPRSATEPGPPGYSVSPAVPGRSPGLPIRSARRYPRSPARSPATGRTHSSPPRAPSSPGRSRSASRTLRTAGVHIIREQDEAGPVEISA
Kind of test: co-IP; cell surface co-IP (cs-IP) in HeLa cells: anti-GlialCAM Ab against an extracellular epitope bound to the live cell PM on ice for 45 min, unbound Ab washed off, lysis in milder buffer with 0.4% NP-40, magnetic beads (Dynabeads M-280); Western blot with anti-HA or anti-Flag. On the technique in general: Immunoblotting shows a protein as a band on a membrane.

B1: 2HA-MLC1 wild type (megalencephalic leukoencephalopathy with subcortical cysts 1) (protein, UniProt Q15049 1-377)
chain: MTQEPFREELAYDRMPTLERGRQDPASYAPDAKPSDLQLSKRLPPCFSHKTWVFSVLMGSCLLVTSGFSLYLGNVFPAEMDYLRCAAGSCIPSAIVSFTVSRRNANVIPNFQILFVSTFAVTTTCLIWFGCKLVLNPSAININFNLILLLLLELLMAATVIIAARSSEEDCKKKKGSMSDSANILDEVPFPARVLKSYSVVEVIAGISAVLGGIIALNVDDSVSGPHLSVTFFWILVACFPSAIASHVAAECPSKCLVEVLIAISSLTSPLLFTASGYLSFSIMRIVEMFKDYPPAIKPSYDVLLLLLLLVLLLQAGLNTGTAIQCVRFKVSARLQGASWDTQNGPQERLAGEVARSPLKEFDKEKAWRAVVVQMAQ
In the case of B1, the binding entry is on record as “binds”.

B2: 2HA-MLC1-C326R (protein, UniProt Q15049 1-377)
chain: MTQEPFREELAYDRMPTLERGRQDPASYAPDAKPSDLQLSKRLPPCFSHKTWVFSVLMGSCLLVTSGFSLYLGNVFPAEMDYLRCAAGSCIPSAIVSFTVSRRNANVIPNFQILFVSTFAVTTTCLIWFGCKLVLNPSAININFNLILLLLLELLMAATVIIAARSSEEDCKKKKGSMSDSANILDEVPFPARVLKSYSVVEVIAGISAVLGGIIALNVDDSVSGPHLSVTFFWILVACFPSAIASHVAAECPSKCLVEVLIAISSLTSPLLFTASGYLSFSIMRIVEMFKDYPPAIKPSYDVLLLLLLLVLLLQAGLNTGTAIQRVRFKVSARLQGASWDTQNGPQERLAGEVARSPLKEFDKEKAWRAVVVQMAQ
In the case of B2, the binding result is recorded as “binds”.

B3: 2HA-MLC1-P92S (protein, UniProt Q15049 1-377)
chain: MTQEPFREELAYDRMPTLERGRQDPASYAPDAKPSDLQLSKRLPPCFSHKTWVFSVLMGSCLLVTSGFSLYLGNVFPAEMDYLRCAAGSCISSAIVSFTVSRRNANVIPNFQILFVSTFAVTTTCLIWFGCKLVLNPSAININFNLILLLLLELLMAATVIIAARSSEEDCKKKKGSMSDSANILDEVPFPARVLKSYSVVEVIAGISAVLGGIIALNVDDSVSGPHLSVTFFWILVACFPSAIASHVAAECPSKCLVEVLIAISSLTSPLLFTASGYLSFSIMRIVEMFKDYPPAIKPSYDVLLLLLLLVLLLQAGLNTGTAIQCVRFKVSARLQGASWDTQNGPQERLAGEVARSPLKEFDKEKAWRAVVVQMAQ
As for B3, the binding entry is recorded as “binds”.
